Test results: publication PMC12308784, “Organometallic Half-Sandwich Complexes of 1,10-Phenanthroline Derivatives with Improved Solubility, Albumin-Binding, and Nanoformulation Potential Targeting Drug Resistance in Cancer” (Inorganic Chemistry, 2025)

Assay: ternary complex formation with histidine model 1-methylimidazole by 1H NMR
Conditions: PBS’ pH 7.4
Text: Our other aim was to investigate the binding kinetics of RuCymBP over a longer period of time, since MeIm has no such stability problems compared to HSA in a 2 week follow-up.
Slow exchange of the aqua and chlorido complexes on the NMR time scale is not unique for RuCym complexes; formerly we have observed the same phenomenon with 2-picolinate and cyclometalated 4-phenylthiazole complexes. , The ternary complex formation with MeIm is rather slow; at a 1:1 ratio, the emergence of a new peak can be observed after 6 days, and only ca. 10% ternary complex forms after 14 days. By increasing the MeIm excess to 10-fold, the ternary complex becomes detectable after 8 h and about 2/3 of the metal complex transforms to the ternary species after 14 days. ^1H NMR studies on the RhCp*BP – MeIm system indicated a more rapid and almost quantitative interaction (Figure S21). The formation of the ternary complex proceeds within 30 min with 87% conversion. The quantity of the ternary complex formed with MeIm agrees very well with previously reported data on RhCp*BPY–MeIm (67%), although the complex formation was reported to be slower for the latter. The coordination of the present RhCp* complexes to His imidazole groups in albumin is therefore highly probable; however, the specific binding sites and the possible involvement of other side chains remain to be elucidated in future studies.
A Bruker AVANCE III HD Ascend 500 Plus instrument was used for NMR studies. For the characterization of the complexes both the ^1H and ^13C NMR spectra were recorded in CD3OD (10 mM, t = 25 °C). The ^13C NMR spectra were obtained with the attached proton test distinguishing CH and CH3 as positive peaks and quaternary carbons and CH2 as negative peaks. ^1H NMR spectroscopic measurements of the complexes with MeIm were carried out employing a WATERGATE water suppression pulse scheme in the presence of 10% (v/v) D2O/90% (v/v) H2O. DSS internal standard was added to the samples to obtain reference peaks.
Figure S 19. Fluorescence emission spectra of HSA in the presence of RhCp*BP over 5 h { cRhCp*BP = […]

Compound	conversion to ternary complex with MeIm (within 30 min)	fraction of metal complex transformed to the ternary species (10-fold MeIm excess, after 14 days)	ternary complex formed with MeIm (complex:MeIm 1:1, after 14 days, 25 °C)
[Rh(III)(η^5-C5Me5)(bathophenanthroline)Cl]Cl [RhCp*BP]	87%		
Cc1ccc(C(C)C)cc1.[Cl-].[Cl-].[Ru+2].c1ccc(-c2ccnc3c2ccc2c(-c4ccccc4)ccnc23)cc1 [RuCymBP, [Ru(II)(η^6-p-cymene)(bathophenanthroline)Cl]Cl]		about 2/3	ca. 10%
